The results in this text go back to PubChem BioAssay AID256 (DTP/NCI, 2004).

For the experiment, the system named is CD2F1 mice, L1210 leukemia ip, survival T/C. The experiment in a line: NCI In Vivo Anticancer Drug Screen. Data for tumor model L1210 Leukemia (intraperitoneal) in CD2F1 (CDF1) mice. The settings on record: T/C endpoint: mean survival time, higher T/C = longer survival. Summed up: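 Tumor-bearing mice (transplanted tumor) were split into treated and vehicle control groups, and the measured endpoint of each treated group was divided by that of its vehicle controls.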

[1] abbreviates: dose: 100.0 mg/kg/injection, schedule: Q01DX009 (ip), vehicle: saline with Tween-80.
The mark [2] stands for this setting: dose: 200.0 mg/kg/injection, schedule: Q01DX009 (ip), vehicle: saline with Tween-80.
Where [3] appears, read: dose: 200.0 mg/kg/injection, schedule: Q04DX003 (ip), vehicle: saline with Tween-80.

The list shows only some results of the screen, not a fair sample: it is rich in T/C values a quarter to a half above the control, in often repeated tests (any T/C) and in doses without a T/C. Other doses and runs of a compound stand elsewhere. T/C gives the treated animals as a percentage of the vehicle group. Some doses have a count of surviving animals in place of a T/C: the source files T/C as zero there, which appears to mark a toxic dose or a test without result, not a measured value. Some doses without a T/C left all or most animals alive at the check, yet need not have been tolerated: the source hardly ever lists a survival T/C far under the control, and the zero likely stands for such cases as well. Survivors were counted at the toxicity check, usually on the fifth day, unless a day is given; later deaths do not show. Schedule codes are those of the source, read here as Q, the interval in days (D) or hours (H), X, the number of doses. For survival time, the PubChem record calls one and a half times the control and up active, and a quarter to a half above the control has no call in these data; cut-offs in other NCI protocols can differ. Some doses were run more than once; the results are listed from low to high. Some T/C values carry the count of animals alive at the toxicity check (mostly the fifth day); where none is given, no animal had died by that day.

Regarding `Cc1cc(NCCN(C(C)C)C(C)C)nc(Nc2nc3ccc(Cl)cc3[nH]2)n1`, where the note is “dose: 3.13 mg/kg/injection, schedule: Q01DX009 (ip), vehicle: saline with Tween-80”, the survivor count is 6 of 6.
For the compound `CNC(=O)OCc1c(COC(=O)NC)c(-c2ccccc2)n(C)c1-c1ccccc1`, the T/C by setting is: (dose: 12.5 mg/kg/injection, schedule: Q01DX009 (ip), vehicle: distilled water + Tween-80) 140 % of control; (dose: 25.0 mg/kg/injection, schedule: Q01DX009 (ip), vehicle: distilled water + Tween-80) 147 % of control. Also, the survivor count (dose: 100.0 mg/kg/injection, schedule: Q01DX009 (ip), vehicle: distilled water + Tween-80) is recorded as 3 of 6.
In the case of `N#CC1=C(N)CCC1`, the survivor count is, setting by setting: under setting [1], 0 of 6; under setting [2], 0 of 6; under setting [3], 3 of 6; (dose: 400.0 mg/kg/injection, schedule: Q01DX009 (ip), vehicle: saline with Tween-80) 0 of 6.
Turning to `NC(=S)N/N=C/c1ccc(Cl)cn1`, the T/C (dose: 7.33 mg/kg/injection, schedule: Q01DX009 (ip), vehicle: saline with Tween-80) was 141 % of control [9 of 10 alive]; the T/C (dose: 11.0 mg/kg/injection, schedule: Q01DX009 (ip), vehicle: saline with Tween-80) was 140 % of control; the T/C (dose: 25.0 mg/kg/injection, schedule: Q04DX002 (ip), vehicle: saline with Tween-80) is 132 and 143 % of control. The survivor count is 5 of 10 (dose: 16.5 mg/kg/injection, schedule: Q01DX009 (ip), vehicle: saline with Tween-80); 0 of 10 (dose: 25.0 mg/kg/injection, schedule: Q01DX009 (ip), vehicle: saline with Tween-80); 0 of 3 (dose: 50.0 mg/kg/injection, schedule: Q04DX002 (ip), vehicle: saline with Tween-80); 0 of 3 (dose: 100.0 mg/kg/injection, schedule: Q04DX002 (ip), vehicle: saline with Tween-80); 0 of 3 (dose: 200.0 mg/kg/injection, schedule: Q04DX002 (ip), vehicle: saline with Tween-80); 0 of 3 (dose: 400.0 mg/kg/injection, schedule: Q04DX002 (ip), vehicle: saline with Tween-80).
As for `CC(=O)c1ccc[n+](Cc2c(Cl)cccc2Cl)c1`, the survivor count (dose: 100.0 mg/kg/injection, schedule: Q04DX003 (ip), vehicle: saline) is 5 of 6; the survivor count (dose: 200.0 mg/kg/injection, schedule: Q04DX003 (ip), vehicle: saline) is 1 of 6; the survivor count (dose: 400.0 mg/kg/injection, schedule: Q04DX003 (ip), vehicle: saline) was 1 of 6.
Turning to `CCOc1ccccc1C(=O)OC(CN(CC)CC)c1ccccc1` (stereo not given), the survivor count (dose: 400.0 mg/kg/injection, schedule: Q04DX002 (ip), vehicle: saline) was 2 of 3.
`C[C@@H]1C[C@H]2[C@@H]3CCC4=CC(=O)C=C[C@]4(C)[C@@]3(F)[C@@H](O)C[C@]2(C)[C@@]1(O)C(=O)CO`: under “dose: 100.0 mg/kg/injection, schedule: Q01DX009 (ip), vehicle: suspension in saline”, the T/C was 132 % of control.
Consider `C=C(Br)CNC(=O)OCCCC`, for which the survivor count is on record as 5 of 6 under setting [1] and 1 of 6 under setting [2].
On to `CC(=O)Nc1ccc2ccccc2c1-c1c(NC(C)=O)ccc2ccccc12`, for which, under setting [3], the survivor count is 6 of 6.
